Assay results taken from PubChem BioAssay AID1259354 (Paczesny and Yang Labs, IUPUI and University of Michigan, 2018).
Several values for one entry are separate records, joined by “and”; a condition that tells them apart may be missing. Equal entries are not always repeated. About 1,800 (2.3%) of roughly 78,000 compounds were called active. Inconclusive means that the source gave no clear call. Such entries were picked first, then a sample of the others. Cut-off read from the data, not from the text of the source: active = inhibition above about 30%; inconclusive = mostly about 10% to 28%; inactive = weaker than that.

By UniProt entry, the sequences of proteins in these tests, tags left out. Where a name states a change or a piece, a line headed by the entry shows the natural chain unless it says otherwise.
UniProt Q01638: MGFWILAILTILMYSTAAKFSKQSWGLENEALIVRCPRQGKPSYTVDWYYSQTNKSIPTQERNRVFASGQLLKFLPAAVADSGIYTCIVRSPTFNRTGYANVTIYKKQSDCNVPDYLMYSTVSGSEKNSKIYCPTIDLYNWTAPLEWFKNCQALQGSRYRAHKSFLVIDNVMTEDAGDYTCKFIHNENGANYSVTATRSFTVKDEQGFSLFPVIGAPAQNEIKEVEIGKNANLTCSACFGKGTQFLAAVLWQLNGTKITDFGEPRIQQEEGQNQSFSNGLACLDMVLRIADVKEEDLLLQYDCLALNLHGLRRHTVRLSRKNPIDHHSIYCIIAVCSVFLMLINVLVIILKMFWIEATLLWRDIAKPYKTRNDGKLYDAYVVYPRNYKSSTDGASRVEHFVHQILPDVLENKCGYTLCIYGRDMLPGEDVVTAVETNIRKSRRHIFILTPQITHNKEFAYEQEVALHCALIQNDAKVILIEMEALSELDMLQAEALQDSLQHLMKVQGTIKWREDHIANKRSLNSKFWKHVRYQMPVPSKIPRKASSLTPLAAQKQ

These compounds were tested against Interleukin-1 receptor-like 1 (Homo sapiens) (UniProt Q01638) (assay: blocks human ST2 binding to IL-33, primary screen, biochemical, AlphaLISA (AID 1259354)). Settings: AlphaLISA ST2-Fc/biotin-IL-33 interaction, 1 h; at 17 µM, stronger effect = higher value.

| SMILES | inhibition |
| --- | --- |
| O=S(=O)(N1CCCC1)N1CCN(c2nccc(CCC(F)(F)F)n2)CC1 | inconclusive: 16% |
| CCOC(=O)c1c(C)n(CC(C)C)c2c1cc(O)c1ccccc12 | inconclusive: 14% |
| COCC(C)(C)CNC(=O)C1CC=CCC1 (configuration not stated) | inconclusive: 12% |
| CC(=O)N(C1=C(N2CCCC2)C(=O)c2ccccc2C1=O)c1ccc(F)c(F)c1 | inconclusive: 18% |
| Cc1ccc(-c2nnc([C@H]3CCN(C(=O)CCC(=O)O)C3)o2)cc1 | inconclusive: 21% |
| COCC(NC(=O)CC12CC3CC(CC(C3)C1)C2)c1ccnn1C (configuration not stated) | inconclusive: 11% |
| Cc1ccc(-n2c(SCc3cccc(F)c3)nc3c(c2=O)SCC3)cc1 | active: 33% and inconclusive: 13% |
| CCCS(=O)(=O)N1CCCC(C(=O)NCCCN2CCCCC2C)C1 (configuration not stated) | inconclusive: 12% |
| Cn1c(=O)cc(SCC(=O)NCc2ccc3c(c2)OCO3)c2ccc(Cl)cc21 | inactive |
| Clc1ccc(-c2nnc([C@H]3CCN(CC4CCCCC4)C3)o2)cc1 | inconclusive: 17% |
| Cc1ccc(N2C(=O)c3ccc(C)cc3C2=O)c(Cl)c1 | inactive |
| CC(C)=CCC[C@](C)(O[C@@H]1O[C@H](CO[C@@H]2O[C@H](CO)[C@@H](O)[C@H](O)[C@H]2O)[C@@H](O)[C@H](O)[C@H]1O)[C@H]1CC[C@]2(C)C1[C@H](O)CC1[C@@]3(C)CC[C@H](O[C@@H]4O[C@H](CO)[C@@H](O)[C@H](O)[C@H]4O)C(C)(C)C3CC[C@]12C (some centres not stated) | inconclusive: 20% |
| Cn1ccnc1C(=O)C1CCCN(C(=O)c2cn(C/C=C/c3ccccc3)nn2)C1 (configuration not stated) | inconclusive: 14% |
| CCOC(=O)C1=C(C)NC2=C(C(=O)C(C(=O)OC)C(C)C2)C1c1ccc(N(CC)CC)cc1 (configuration not stated) | inconclusive: 17% |
| COc1ccc(F)c(-c2c[nH]c(=O)[nH]c2=O)c1 | inactive |
| Cc1cccn2c(=O)c3cc(C(=O)Nc4ccccc4)n(C)c3nc12 | inconclusive: 20% |
| COc1cc(SC)ccc1C(=O)Nc1nnc(C(C)(C)C)s1 | inconclusive: 10% |
| COc1cc(C)c(S(=O)(=O)NCc2cccnc2)cc1C | inconclusive: 14% |
| O=C(Nc1cccnc1)C1CCN(S(=O)(=O)c2cccc3cccnc23)CC1 | inconclusive: 13% |
| CCOC(=O)C1(Cc2ccc(Cl)cc2)CCN(C(=O)C2Cc3ccccc3O2)CC1 (configuration not stated) | inactive |
| CC1(C)[C@@H]2CC[C@]1(CS(=O)(=O)Nc1cccc(F)c1)C(=O)C2 | inactive |
| Cc1ccc(-c2nc3ccccn3c2Nc2ccc3c(c2)OCO3)o1 | inconclusive: 12% |
| CCOc1ccc(/C=C2\N=C(c3ccc(Cl)cc3)OC2=O)cc1OCC | inconclusive: 21% |

| SMILES | inhibition |
| --- | --- |
| O=C(Nc1ccccc1)Nc1ccccc1Cl | inconclusive: 12% |
| CCC(C)NC(=O)C1CCN(S(=O)(=O)c2cccc3cccnc23)CC1 (configuration not stated) | inconclusive: 14% |
| COc1ccc(C(=O)N=c2sc3cccc(OC)c3n2C)cc1OC | inconclusive: 11% |
| CC(C)OC(=O)c1cc2ccccc2oc1=O | inconclusive: 11% |
| CCCn1cnnc1CNCC(=O)Nc1cnccn1 | inactive |
| Cc1cc(CN2CCC(CNC(=O)c3c(F)cccc3F)C2)oc1C (configuration not stated) | inconclusive: 16% |
| COCc1cc(C)nc(N2CCOCC2)c1C#N | inconclusive: 10% |
| COc1cc(CN2CCN(c3ccccc3C)CC2)cc([N+](=O)[O-])c1O | active: 89% |
| CC1=CC(C)(C)N(C(=O)CSc2nc3ccccc3[nH]2)c2ccccc21 | inconclusive: 16% |
| Cn1c(=O)c2c(nc3n(CCO)c(-c4ccc(F)cc4)cn23)n(C)c1=O | inconclusive: 29% |
| COc1ccc(C(=O)Oc2ccc3oc(=O)sc3c2)cc1OC | inconclusive: 13% |
| CCCCOC(=O)COc1ccc2c(=O)c(Oc3cc(C)cc(C)c3)coc2c1 | inconclusive: 11% |
| Cc1ccc(-n2nc3cc(Cl)c(NC(=O)c4cccnc4)cc3n2)cc1 | inconclusive: 18% |
| Nc1ccc2nc(C(O)C(O)c3nc4ccc(N)cc4[nH]3)[nH]c2c1 (configuration not stated) | inconclusive: 17% |
| OC(C#CCN1CCCC1)(c1ccccc1)c1ccccc1 | inconclusive: 16% |
| O=C(O)C1CC2(CCNCC2)CN1CCc1ccccc1 (configuration not stated) | inactive |
| COC(=O)Cn1c(C)cc2ccccc2c1=O | inactive |
| N#C/C(=C\c1ccc(-c2ccccc2)o1)C(=O)Nc1cccc2ncccc12 | active: 40% |
| COc1ccccc1-n1cnc2cc(NS(=O)(=O)c3ccc(Br)cc3)ccc21 | inconclusive: 11% |
| CCOc1ccccc1C(=O)NC1CC(=O)N(Cc2ccccc2Cl)C1 (configuration not stated) | inconclusive: 20% |
| CCOC(=O)c1c(C)n(C)c2c1cc(OC)c1ccccc12 | inactive |
| O=C(Nc1cccc2ccccc12)N1CCC2(CCCNC2)C1 (configuration not stated) | inactive |
| CCC(NC(=O)CCNC(=O)c1ccccc1F)c1cccs1 (configuration not stated) | inconclusive: 11% |

| SMILES | inhibition |
| --- | --- |
| O[C@@H]1C[C@@H](c2nc(Cc3ccc(F)cc3Cl)no2)N(Cc2ncc[nH]2)C1 | inconclusive: 13% |
| COc1cc(C2Nc3ccc(C(=O)c4ccccc4)cc3NC3=C2C(=O)CCC3)ccc1O (configuration not stated) | inconclusive: 21% |
| O=C(CCS(=O)(=O)c1cccc2nonc12)Nc1cccc(F)c1 | inconclusive: 13% |
| CC(=O)N1N=C(c2ccncc2)OC1c1ccc(C(C)C)cc1 (configuration not stated) | inconclusive: 14% |
| O=C(COc1ccccc1Cl)Nc1ccccc1N1CCOCC1 | inactive |
| Cc1cnc(CNC(=O)CC2COCCN2)cn1 (configuration not stated) | inconclusive: 15% |
| Nc1c2c(nc3ccccc13)N(C1CCCCC1)CC2 | inconclusive: 14% |
| N#Cc1nc(COc2ccccc2Cl)oc1N1CCC(C(N)=O)CC1 | inactive |
| CCOCCCNc1c(-c2ccccc2)nc2cnccn12 | inconclusive: 10% |
| CCSCCOC(=O)C1=C(C)NC(=O)NC1c1ccccc1 (configuration not stated) | inconclusive: 11% |
| N/C(=N/OC(=O)c1ccc2c(c1)OCO2)c1ccc([N+](=O)[O-])cc1 | inconclusive: 17% |
| Cc1nc(C(=O)N2CCCCC2C(=O)Nc2cccc(-c3nnc(C)s3)c2)cs1 (configuration not stated) | inconclusive: 13% |
| CC(=O)O[C@@]1(C)C[C@@H](O)[C@]2(O)C=CO[C@@H](O[C@@H]3O[C@H](CO)[C@@H](O)[C@H](O)[C@H]3O)[C@@H]21 | inconclusive: 12% |
| COC(=O)c1cccc(N2C(=O)C3C4C=CC(O4)C3C2=O)c1 (configuration not stated) | inactive |
| COC(=O)C1C(=O)C2=C(CC1C)NC(C)=C(C(=O)OC1CCCCC1)C2c1ccccc1F (configuration not stated) | inconclusive: 10% |
| COc1cc(Br)c(CN2CCCN(C)CC2)cc1OC | inconclusive: 11% |
| CSc1ccc(-c2nc3cnccn3c2Nc2ccc3c(c2)OCCO3)cc1 | inconclusive: 16% |
| C#CCN(C)C(=O)c1cc(C)c(C)c(S(N)(=O)=O)c1 | inconclusive: 10% |
| c1ccc2c(c1)CCN2CCNC1CCCNC1 (configuration not stated) | inconclusive: 18% |
| CC(=O)Nc1ccc(NS(C)(=O)=O)cc1 | inconclusive: 23% |
| COc1ccc([N+](=O)[O-])cc1-c1ccc(/C=C2\SC(N)=NC2=O)o1 | inconclusive: 19% |
| Oc1oc(-c2ccc(Cl)cc2)nc1C=Nc1ccc(Br)cn1 | inconclusive: 25% |
| CN1CCCN(CC(=O)NCCSC(C)(C)C)CC1 | inconclusive: 25% |

6 records drawn at random from those above, as already listed:

| SMILES | inhibition |
| --- | --- |
| CSc1ccc(-c2nc3cnccn3c2Nc2ccc3c(c2)OCCO3)cc1 | inconclusive: 16% |
| CCOCCCNc1c(-c2ccccc2)nc2cnccn12 | inconclusive: 10% |
| COc1ccc([N+](=O)[O-])cc1-c1ccc(/C=C2\SC(N)=NC2=O)o1 | inconclusive: 19% |
| Cn1ccnc1C(=O)C1CCCN(C(=O)c2cn(C/C=C/c3ccccc3)nn2)C1 (configuration not stated) | inconclusive: 14% |
| Cn1c(=O)c2c(nc3n(CCO)c(-c4ccc(F)cc4)cn23)n(C)c1=O | inconclusive: 29% |
| Nc1c2c(nc3ccccc13)N(C1CCCCC1)CC2 | inconclusive: 14% |

The list continues.

| SMILES | inhibition |
| --- | --- |
| Cc1cc2c(cc1C)NC(CC(=O)Nc1cccc(C(=O)O)c1)C(=O)N2 (configuration not stated) | inactive |
| C=CCOc1ccccc1CN(CCN(C)C)Cc1ccccc1 | inconclusive: 10% |
| COc1cc(OC)cc(C(=O)Nc2ccc(S(=O)(=O)Nc3nccnc3OC)cc2)c1 | inactive |
| O=S(=O)(Nc1ccc(Cl)cc1)c1cccc2nsnc12 | inconclusive: 11% |
| CC1=C(C(=O)Nc2ccc(F)cc2F)C(c2cccnc2)C2=C(CC(C)(C)CC2=O)N1 (configuration not stated) | inconclusive: 13% |
| CCN1CCN(C2=NC(=O)/C(=C/c3ccc(Br)cc3)S2)CC1 | inconclusive: 12% |
| CCN(CC)S(=O)(=O)c1ccc(Cl)c(C(=O)Nc2ccc([N+](=O)[O-])cc2)c1 | inactive |
| Cc1nc(Nc2ccccc2C)c([N+](=O)[O-])[nH]1 | inactive |
| Cc1nn(CCCC(=O)Nc2cc(Oc3ccc(F)cc3)cc([N+](=O)[O-])c2)c(C)c1[N+](=O)[O-] | inconclusive: 26% |
| CCNC(=O)N1C[C@@H]2OCC(=O)N(Cc3cccnc3)[C@@H]2C1 | inconclusive: 10% |
| COc1ccccc1/C=C/C1=NC(=C\c2ccc(C)cc2)/C(=O)O1 | active: 38% |
| COc1ccc2c(c1)c(CC(=O)O)c(C)n2Cc1ccc(F)cc1 | inconclusive: 17% |
| Cc1ccccc1-c1cc(C(=O)N2CCCC2)c2ccccc2n1 | inconclusive: 14% |
| Cc1ccc(NC(=O)C2CCN(S(=O)(=O)c3cccs3)CC2)cc1F | inconclusive: 12% |
| Cc1ccc(C#N)c(SCC(=O)c2ccc(Br)cc2)n1 | inconclusive: 17% |
| COc1ccc(OC)c(N2C(N)=C(C#N)C(c3ccc(OC)c(O)c3)C3=C2CCCC3=O)c1 (configuration not stated) | inconclusive: 16% and inconclusive: 11% |
| O=c1nc2cc3[nH]c4c(=O)c5ccccc5c4[nH]c3cc2n1 | active: 46% |
| Cc1nn(Cc2ccc(F)cc2)c(C)c1NC(=O)CCCn1nc([N+](=O)[O-])c(Cl)c1C | inactive |
| COCCCNc1nc(-c2ccccc2F)nc2ccccc12 | inactive |
| COC(=O)c1cc2n(n1)CCN(C(=O)Cn1c(C(C)C)nc3ccccc31)C2 | inactive |
| CCCC(=O)NC(C)c1nc2ccccc2n1CC(C)C (configuration not stated) | inconclusive: 11% |
| COc1ccc(/C=C2/C=C(c3cc(OC)ccc3OC)OC2=O)c(OC)c1 | active: 40% |
| C=CC(C)(C)c1c(OC)oc2cccc(C)c2c1=O | inconclusive: 21% |
